Assay results reported in the supplement of paper PMC5949888.
Most values lie at the floor of the assay. Slopes are relative: functional sequences can read slightly below zero.

tested on: Saccharomyces cerevisiae PS128 hsf1 delta, HSF1(1-493) fusion; assay: growth estimate (transactivation domain function in HSF1 fusion, heat-shock survival) (a.u. (slope of normalised read count over time)); higher = stronger growth at 37°C, i.e. more transactivation activity; details: library: random library

| Substance | growth estimate |
| --- | --- |
| FDQ | < -0.25 |
| ARVVSSRQVTSAFKSPSYRQ | < -0.25 |
| YDDRHKDESSTPTLTVRTRC | < -0.25 |
| SPAEGDGTYWLSTWERHSVG | -0.177 |
| RVLCDVSSISGISLILVFFL | < -0.25 |
| LVQ | < -0.25 |
| FVYRYKSGKPPREDPVVGTD | < -0.25 |
| VGLGAPSLVVSRLSNIA | < -0.25 |
| LRGYHYGSTGSRYAPALGGS | < -0.25 |
| GRDRLTPEYAYSRKFVGCSA | < -0.25 |
| YVHHLPG | < -0.25 |
| LPVGAV | < -0.25 |
| HFIGIMSSSGIVRTTIQIML | < -0.25 |
| VQGCARTTSWTELGPKSRHQ | < -0.25 |
| LHPSLPPV | < -0.25 |
| CGSLVQPKPEDLGRPIWTMP | < -0.25 |
| VSLKHRRNGSVGGRSLISSH | < -0.25 |
| KYMGF | -0.243 |
| AIEMSTLPSQYRRPKPP | < -0.25 |
| QRSKFNEIPEKNIGMKLRGD | < -0.25 |
| YLTSHGLTRHPMFYEILSVR | < -0.25 |
| NPQHHCPLKAPWRELLTVQL | < -0.25 |
| PSFDRPVESS | < -0.25 |

| Substance | growth estimate |
| --- | --- |
| FLQLPRPYDADPQEAPFTVN | < -0.25 |
| SAYCAPCVSKDRVGTIVAGC | < -0.25 |
| TFGWYP | < -0.25 |
| ALQWQG | < -0.25 |
| HHGRAREPFLRGALGPVRHT | < -0.25 |
| VVDHSTRLAPEFEVPAMPRA | < -0.25 |
| EFSLSGVGASRQLEVTAGRF | < -0.25 |
| YVPGGGESCSSGDGELWGEN | < -0.25 |
| FHRCHNELFLSHA | < -0.25 |
| LSRLSCE | < -0.25 |
| RCQLVYVAFGVILLSNVTLH | < -0.25 |
| DMFSSRRLSYYERRPKRRDV | 0.246 |
| LIAYEVNCIRELKSVGGHGL | < -0.25 |
| VLPIETGLSPASAYHHGWLP | -0.203 |
| SPTSFVKDSIELTSYRKAAP | < -0.25 |
| SQLSDDRQFLRSAY | < -0.25 |
| HHFASS | < -0.25 |
| SCKHDAVLMAHCGRHMPGER | < -0.25 |
| VQSVVYRATQETNPG | < -0.25 |
| HDIARATRQSNIHGVNS | < -0.25 |
| GYGKDSTYVPDEPRGSILGH | < -0.25 |
| LVGNWDKNEDCHDFRTAFW | -0.115 |
| VSVLASYSSSRSPRLGWCVP | < -0.25 |

| Substance | growth estimate |
| --- | --- |
| KNGPTTRDAEPLRG | < -0.25 |
| ERNVGGPYDNH | < -0.25 |
| HVVFYEPKTPGRALLFKGCS | < -0.25 |
| GRHVVSRLDSPTIIDVSSCR | < -0.25 |
| ASVLGWLCRTGSVCT | < -0.25 |
| AALMENFETLTKGAGCVRRE | < -0.25 |
| VYGRRSRSDLVHYALFPQCL | < -0.25 |
| VDLLNKVLAHVAISSG | < -0.25 |
| AAP | < -0.25 |
| RVVEYAHRRYLQQSSPMDIS | < -0.25 |
| AGRHCYIVSCYSRVRFRRLQ | < -0.25 |
| RLTRVFSTLDGTSTGMKIRR | < -0.25 |
| RVGCR | < -0.25 |
| IQSTSCRVRWLSQASCERIL | < -0.25 |
| RSKQAIAMSMCFP | < -0.25 |
| VAM | < -0.25 |
| GRYDLHDRR | < -0.25 |
| VNGLWRD | < -0.25 |
| LLRVLTGAAGIKRFAKQRH | < -0.25 |
| DSGGIDKSIHDPQNCLPGK | < -0.25 |
| GTLDP | < -0.25 |
| TNHTSRRPVNSFAGAQRTRI | < -0.25 |
| LSSLGPHRH | < -0.25 |

Reprinted at random: two entries already listed, in no set order.

| Substance | growth estimate |
| --- | --- |
| VAM | < -0.25 |
| AGRHCYIVSCYSRVRFRRLQ | < -0.25 |

Next records follow.

| Substance | growth estimate |
| --- | --- |
| RGRLIECRSSRRR | < -0.25 |
| EIREWSTAPWNKG | < -0.25 |
| LLRV | < -0.25 |
| CLSPRWE | < -0.25 |
| DPGPGHNDRACGLGRTRHLT | -0.246 |
| LFQ | -0.229 |
| TCSSRSQREWRLLVEAGNNC | -0.25 |
| PCTV | < -0.25 |
| VTGWGLRQSTDARPRQAWYN | < -0.25 |
| TEDCSRR | < -0.25 |
| PDGRLHVPDDRV | < -0.25 |
| YQTPPWTTHTRSIFCNGIDC | < -0.25 |
| SWAAVPRWAWCLRAMRLLGL | < -0.25 |
| GKLSLK | < -0.25 |
| AFSRGGRCSGIHQPVLLRSM | < -0.25 |
| EVQGK | < -0.25 |
| RIWNRCDEPSQLSDGR | < -0.25 |
| IPTYAPNSP | < -0.25 |
| ASMSGRRYHQA | < -0.25 |
| VSQHPYGRRSSQLLGTWCAF | < -0.25 |
| SGLLCVA | < -0.25 |
| HVYNWAVPLPQA | < -0.25 |
| TDLGKIGHGICWVLLIYVLV | < -0.25 |

| Substance | growth estimate |
| --- | --- |
| NVYCEGTRPTILISAGSPVG | < -0.25 |
| SGRRALDVSSRRVD | < -0.25 |
| SYDSIGRLHTYLYRRDSKHA | < -0.25 |
| RKYS | < -0.25 |
| DVCASRRAECWSFRVAHTDF | < -0.25 |
| LQRRVAL | < -0.25 |
| ICWGMICGFHAPTILSRNGH | < -0.25 |
| SPMFY | < -0.25 |
| TGGRLLGISWGLTPSHQRGV | < -0.25 |
| FLGLNAAGCDGWGTLAKAEG | < -0.25 |
| RCDRVDQSRYSG | < -0.25 |
| SAVTLLESRNLERCDMTRPL | < -0.25 |
| YAWAW | < -0.25 |
| FHRVVSGGLFEHRS | < -0.25 |
| ELKCKGIALARSRYVAPDVH | < -0.25 |
| VRFESRDPPGRDTVRYSSWA | < -0.25 |
| SVPKCPEALTRVQRTRVSSA | < -0.25 |
| LVAGKIPS | < -0.25 |
| WYCSVSIPAEV | < -0.25 |
| GQGTG | < -0.25 |
| RVSAASQVAPR | < -0.25 |
| RIHDRGDPSKTV | < -0.25 |
| EVTVTSPGIVLCLFGDLLTA | < -0.25 |

| Substance | growth estimate |
| --- | --- |
| SDCREGGRVIEGNTLRQL | < -0.25 |
| PQRSERTAIRTANV | < -0.25 |
| RDHRTGESSWV | < -0.25 |
| FSMHVKQSRLRIGSVRLTGL | < -0.25 |
| ARFGSEPWV | < -0.25 |
| KIKEFLMASVNWISR | < -0.25 |
| AGEEAE | < -0.25 |
| RGASASQGGVYPDRVTTSRI | < -0.25 |
| VNVEIGLSYYPNKLNKTYYS | < -0.25 |
| SCRCACNYSFGRGERGIGAR | < -0.25 |
| PVGIFSFWINNQKHLRQGFA | < -0.25 |
| LEVSTST | < -0.25 |
| LHRTFCNSTVTTSIAEAKDS | < -0.25 |
| GYGITP | < -0.25 |
| ELWDTMESQSSRAHGPRSNL | < -0.25 |
| LRRPQPTKVCSWMLVTSRFN | < -0.25 |
| IRLAYR | < -0.25 |
| LWRAQVFSILEFEDYALTFT | < -0.25 |
| VETEHSR | < -0.25 |
| TLWVPRSSKDEHWQRIQNIC | < -0.25 |
| RGIHCPVTAHVSRGPAECSV | < -0.25 |
| LLHLERVLKFQALGCLKVRC | -0.243 |
| FRGNPTAQCQPDQLFQGSAP | < -0.25 |

| Substance | growth estimate |
| --- | --- |
| GNLLSAPGMRDSTPKTSTRN | < -0.25 |
| EEEYLAREVRKFLGG | < -0.25 |
| FITASSPLPAVGKRLYDLTP | < -0.25 |
| RIWRRTCWHGSASSGVRLFL | < -0.25 |
| HHGVLLGHKGLYCEGLHSTN | < -0.25 |
| GARVP | < -0.25 |
| DNAGFGGI | < -0.25 |
| AGGGEPASFREAGDAWECQI | < -0.25 |
| ADPVRFHR | < -0.25 |
| TLHWVSRVAALKRE | < -0.25 |
| SMGPYSGCCKVWVHKLIL | < -0.25 |
| KYLYKGNSTRVRVTSCQRTR | -0.0469 |
| NIIKRLVLDGTFTISYGI | 0.0045 |
| WDKAQLVISGVRRYVWGRPA | < -0.25 |
| YIFGRVK | < -0.25 |
| MWLC | < -0.25 |
| NQWLGYL | -0.0975 |
| PYRLIEPSL | < -0.25 |
| YTCWQPHSR | < -0.25 |
| TKNRPSA | < -0.25 |

6 entries from above, with tabs:
Substance	growth estimate
KYLYKGNSTRVRVTSCQRTR	-0.0469
NIIKRLVLDGTFTISYGI	0.0045
WDKAQLVISGVRRYVWGRPA	< -0.25
YIFGRVK	< -0.25
MWLC	< -0.25
NQWLGYL	-0.0975
